Structures can show the parent of a compound that is named as a salt. This is one part of the list. Hit calls seldom repeat between salt and free forms of one compound.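 In K562 cells expressing nanoluciferase-fused kinases, luminescence was recorded at 4 h intervals between 2 and 18 h, normalized as percent of control with DMSO at 100% and a positive control at 0%. A significant (2 sigma) signal drop marks a time point as decreased. The authors' rule for a hit is not shown and takes in more than the number of time points.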
Key:
Assay in all cases: number of time points (of 5) at which kinase-Nluc abundance scored as decreased, DMSO-normalised (count); higher = more persistent destabilization
Conditions in all cases: K562; 2-18 h
CAMK2A = CAMK2A (UniProt Q9UQM7)
CAMK2G = CAMK2G (UniProt Q13555)
CDK10 = CDK10 (UniProt Q15131)
CDK2 = CDK2 (UniProt P24941)
CDK3 = CDK3 (UniProt Q00526)
CDK5 = CDK5 (UniProt Q00535)
CDK6 = CDK6 (UniProt Q00534)
CHEK2 = CHEK2 (UniProt O96017)
CSF1R = CSF1R (UniProt P07333)
CSK = CSK (UniProt P41240)
CSNK1A1 = CSNK1A1 (UniProt P48729)
CSNK1D = CSNK1D (UniProt P48730)
DDR1 = DDR1 (UniProt Q08345)
DYRK1B = DYRK1B (UniProt Q9Y463)
DYRK2 = DYRK2 (UniProt Q92630)
EGFR = EGFR (UniProt P00533)
EGFR_G719S = EGFR_G719S (UniProt P00533)
EGFR_G719S_T790M = EGFR_G719S_T790M (UniProt P00533)
EGFR_L718V = EGFR_L718V (UniProt P00533)
EGFR_L858R = EGFR_L858R (UniProt P00533)

Protein sequences, listed by entry. Tags and fused reporters are not part of them. Lines headed by an entry give the natural chain unless they say otherwise; changes in a name come on top.
UniProt Q9UQM7, whole entry: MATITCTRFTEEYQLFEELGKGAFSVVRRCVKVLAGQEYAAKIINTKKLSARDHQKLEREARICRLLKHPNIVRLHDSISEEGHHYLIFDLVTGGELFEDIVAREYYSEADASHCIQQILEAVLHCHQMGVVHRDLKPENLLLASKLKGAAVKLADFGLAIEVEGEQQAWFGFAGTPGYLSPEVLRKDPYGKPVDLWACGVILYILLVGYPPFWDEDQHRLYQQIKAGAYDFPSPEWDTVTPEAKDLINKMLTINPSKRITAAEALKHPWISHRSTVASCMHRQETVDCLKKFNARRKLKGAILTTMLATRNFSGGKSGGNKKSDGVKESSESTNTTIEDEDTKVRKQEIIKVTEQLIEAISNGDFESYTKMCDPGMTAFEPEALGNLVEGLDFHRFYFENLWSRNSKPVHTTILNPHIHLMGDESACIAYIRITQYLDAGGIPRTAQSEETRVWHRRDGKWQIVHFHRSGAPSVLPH
UniProt Q13555: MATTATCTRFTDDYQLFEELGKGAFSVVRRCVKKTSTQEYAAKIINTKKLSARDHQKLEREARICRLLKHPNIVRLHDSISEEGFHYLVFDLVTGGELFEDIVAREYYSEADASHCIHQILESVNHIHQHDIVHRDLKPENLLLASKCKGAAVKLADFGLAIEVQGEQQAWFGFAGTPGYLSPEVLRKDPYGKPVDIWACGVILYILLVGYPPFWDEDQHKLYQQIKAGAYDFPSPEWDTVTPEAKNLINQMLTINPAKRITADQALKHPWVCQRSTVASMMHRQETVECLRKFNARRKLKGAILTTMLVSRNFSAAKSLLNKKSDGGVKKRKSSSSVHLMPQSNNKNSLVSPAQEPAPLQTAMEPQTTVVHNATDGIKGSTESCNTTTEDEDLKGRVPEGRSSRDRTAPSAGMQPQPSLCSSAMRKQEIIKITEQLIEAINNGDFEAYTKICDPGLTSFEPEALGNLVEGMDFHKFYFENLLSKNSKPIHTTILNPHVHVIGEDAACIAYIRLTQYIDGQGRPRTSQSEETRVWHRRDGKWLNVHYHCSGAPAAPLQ
UniProt Q15131: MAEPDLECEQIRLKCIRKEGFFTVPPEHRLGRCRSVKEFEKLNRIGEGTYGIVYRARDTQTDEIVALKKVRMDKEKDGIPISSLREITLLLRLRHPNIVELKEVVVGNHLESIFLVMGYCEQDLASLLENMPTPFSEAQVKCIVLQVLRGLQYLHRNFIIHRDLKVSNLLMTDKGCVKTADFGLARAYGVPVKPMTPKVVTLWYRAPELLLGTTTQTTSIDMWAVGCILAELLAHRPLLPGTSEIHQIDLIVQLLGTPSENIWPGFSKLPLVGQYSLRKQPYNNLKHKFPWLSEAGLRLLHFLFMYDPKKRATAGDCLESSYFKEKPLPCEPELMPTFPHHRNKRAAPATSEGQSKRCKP
UniProt Q00526: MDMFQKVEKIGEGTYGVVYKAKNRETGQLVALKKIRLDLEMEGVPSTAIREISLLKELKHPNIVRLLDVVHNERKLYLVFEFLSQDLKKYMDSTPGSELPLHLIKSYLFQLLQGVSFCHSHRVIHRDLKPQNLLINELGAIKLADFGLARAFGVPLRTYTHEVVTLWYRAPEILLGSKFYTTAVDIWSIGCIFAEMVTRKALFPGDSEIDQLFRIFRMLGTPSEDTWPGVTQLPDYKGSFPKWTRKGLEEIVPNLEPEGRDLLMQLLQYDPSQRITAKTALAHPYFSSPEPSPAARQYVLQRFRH
UniProt Q00535, whole entry, looked up: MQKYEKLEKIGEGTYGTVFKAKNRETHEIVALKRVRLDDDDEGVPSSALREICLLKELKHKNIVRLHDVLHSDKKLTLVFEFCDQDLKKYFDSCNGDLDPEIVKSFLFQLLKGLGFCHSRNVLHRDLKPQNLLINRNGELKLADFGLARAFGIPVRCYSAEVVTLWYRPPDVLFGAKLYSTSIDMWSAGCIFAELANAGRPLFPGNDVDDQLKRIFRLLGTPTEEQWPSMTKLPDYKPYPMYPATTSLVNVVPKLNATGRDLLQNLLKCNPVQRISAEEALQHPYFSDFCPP
UniProt Q00534, whole entry: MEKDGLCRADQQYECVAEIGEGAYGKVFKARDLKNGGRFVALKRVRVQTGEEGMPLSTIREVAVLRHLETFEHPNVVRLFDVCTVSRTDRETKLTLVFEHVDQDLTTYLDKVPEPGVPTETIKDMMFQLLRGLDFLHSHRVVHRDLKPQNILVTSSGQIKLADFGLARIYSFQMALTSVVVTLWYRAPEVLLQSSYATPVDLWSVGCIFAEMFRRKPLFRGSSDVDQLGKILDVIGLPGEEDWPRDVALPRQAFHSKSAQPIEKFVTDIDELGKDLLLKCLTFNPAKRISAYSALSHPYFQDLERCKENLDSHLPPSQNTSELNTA
UniProt O96017, whole entry: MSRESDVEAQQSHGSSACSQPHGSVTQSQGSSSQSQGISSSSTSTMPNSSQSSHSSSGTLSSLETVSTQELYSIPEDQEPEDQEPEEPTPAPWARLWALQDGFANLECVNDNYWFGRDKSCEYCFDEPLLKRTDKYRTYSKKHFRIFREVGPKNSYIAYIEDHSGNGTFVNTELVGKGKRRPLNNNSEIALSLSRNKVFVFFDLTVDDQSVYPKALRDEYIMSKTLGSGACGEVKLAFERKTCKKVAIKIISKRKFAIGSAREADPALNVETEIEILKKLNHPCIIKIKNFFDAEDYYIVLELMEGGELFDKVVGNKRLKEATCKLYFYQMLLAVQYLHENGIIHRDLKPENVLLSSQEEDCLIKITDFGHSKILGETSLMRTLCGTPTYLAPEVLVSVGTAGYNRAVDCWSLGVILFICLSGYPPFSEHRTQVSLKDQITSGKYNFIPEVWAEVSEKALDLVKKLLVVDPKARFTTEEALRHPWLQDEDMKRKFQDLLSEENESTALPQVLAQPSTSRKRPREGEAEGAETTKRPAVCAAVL
UniProt P07333, whole entry: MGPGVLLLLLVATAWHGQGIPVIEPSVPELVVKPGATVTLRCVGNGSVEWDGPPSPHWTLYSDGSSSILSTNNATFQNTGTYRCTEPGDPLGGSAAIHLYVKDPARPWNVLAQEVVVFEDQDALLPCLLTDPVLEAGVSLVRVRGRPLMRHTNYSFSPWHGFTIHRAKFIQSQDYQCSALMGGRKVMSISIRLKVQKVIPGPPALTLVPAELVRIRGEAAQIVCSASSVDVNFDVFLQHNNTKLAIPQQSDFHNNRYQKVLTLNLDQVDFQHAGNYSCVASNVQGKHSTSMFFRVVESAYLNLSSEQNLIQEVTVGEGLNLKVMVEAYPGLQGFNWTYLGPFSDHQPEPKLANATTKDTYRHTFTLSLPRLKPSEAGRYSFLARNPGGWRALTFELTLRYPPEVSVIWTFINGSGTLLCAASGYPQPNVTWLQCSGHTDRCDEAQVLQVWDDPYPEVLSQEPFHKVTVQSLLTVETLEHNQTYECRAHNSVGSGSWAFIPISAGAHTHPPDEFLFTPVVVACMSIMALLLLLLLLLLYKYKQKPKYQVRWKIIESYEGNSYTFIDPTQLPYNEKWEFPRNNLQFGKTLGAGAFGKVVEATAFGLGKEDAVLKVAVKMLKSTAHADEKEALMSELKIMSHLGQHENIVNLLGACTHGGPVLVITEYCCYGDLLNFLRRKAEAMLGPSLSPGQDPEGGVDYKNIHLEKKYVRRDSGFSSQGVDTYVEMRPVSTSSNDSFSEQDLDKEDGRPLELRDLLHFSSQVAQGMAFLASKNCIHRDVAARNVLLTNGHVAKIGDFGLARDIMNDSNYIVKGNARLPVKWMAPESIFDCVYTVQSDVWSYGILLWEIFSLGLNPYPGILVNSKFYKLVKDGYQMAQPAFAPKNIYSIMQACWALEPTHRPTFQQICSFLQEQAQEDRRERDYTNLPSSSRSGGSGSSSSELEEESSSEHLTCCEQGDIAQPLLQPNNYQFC
UniProt P41240: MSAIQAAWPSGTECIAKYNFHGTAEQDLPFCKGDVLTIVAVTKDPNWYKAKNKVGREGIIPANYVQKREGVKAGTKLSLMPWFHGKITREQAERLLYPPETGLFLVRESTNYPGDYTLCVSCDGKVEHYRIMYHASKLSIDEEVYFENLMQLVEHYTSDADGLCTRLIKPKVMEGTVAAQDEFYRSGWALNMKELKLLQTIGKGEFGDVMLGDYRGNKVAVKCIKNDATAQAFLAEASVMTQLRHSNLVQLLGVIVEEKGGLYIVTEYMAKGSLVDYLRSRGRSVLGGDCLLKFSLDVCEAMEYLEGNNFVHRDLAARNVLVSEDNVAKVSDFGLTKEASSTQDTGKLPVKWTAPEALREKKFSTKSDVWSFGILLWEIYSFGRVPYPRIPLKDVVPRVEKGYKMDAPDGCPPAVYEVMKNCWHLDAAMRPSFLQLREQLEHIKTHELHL
UniProt Q08345: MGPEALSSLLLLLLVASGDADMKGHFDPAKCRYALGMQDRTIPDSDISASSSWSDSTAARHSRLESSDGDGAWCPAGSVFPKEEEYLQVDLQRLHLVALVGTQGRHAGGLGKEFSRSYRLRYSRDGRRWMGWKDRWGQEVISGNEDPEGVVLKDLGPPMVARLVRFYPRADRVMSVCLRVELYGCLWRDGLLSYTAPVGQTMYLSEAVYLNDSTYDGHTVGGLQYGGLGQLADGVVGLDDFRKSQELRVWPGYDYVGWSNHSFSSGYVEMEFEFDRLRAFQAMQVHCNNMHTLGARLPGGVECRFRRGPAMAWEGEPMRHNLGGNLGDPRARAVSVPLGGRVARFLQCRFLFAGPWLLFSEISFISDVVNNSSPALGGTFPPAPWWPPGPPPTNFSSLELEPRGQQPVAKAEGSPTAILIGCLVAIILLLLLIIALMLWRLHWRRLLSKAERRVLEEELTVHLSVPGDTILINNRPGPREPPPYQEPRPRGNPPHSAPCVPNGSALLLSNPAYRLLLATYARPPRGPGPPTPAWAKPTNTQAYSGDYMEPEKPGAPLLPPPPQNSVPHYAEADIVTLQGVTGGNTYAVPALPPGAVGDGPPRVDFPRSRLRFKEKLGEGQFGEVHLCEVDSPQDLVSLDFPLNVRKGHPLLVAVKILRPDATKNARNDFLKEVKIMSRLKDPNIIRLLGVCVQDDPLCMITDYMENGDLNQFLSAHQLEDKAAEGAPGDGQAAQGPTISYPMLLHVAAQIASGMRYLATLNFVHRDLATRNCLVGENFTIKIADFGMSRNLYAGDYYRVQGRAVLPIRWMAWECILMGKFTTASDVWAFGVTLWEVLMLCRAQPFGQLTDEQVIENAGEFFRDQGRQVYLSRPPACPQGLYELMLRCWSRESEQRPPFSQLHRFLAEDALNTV
UniProt Q9Y463, whole entry, looked up: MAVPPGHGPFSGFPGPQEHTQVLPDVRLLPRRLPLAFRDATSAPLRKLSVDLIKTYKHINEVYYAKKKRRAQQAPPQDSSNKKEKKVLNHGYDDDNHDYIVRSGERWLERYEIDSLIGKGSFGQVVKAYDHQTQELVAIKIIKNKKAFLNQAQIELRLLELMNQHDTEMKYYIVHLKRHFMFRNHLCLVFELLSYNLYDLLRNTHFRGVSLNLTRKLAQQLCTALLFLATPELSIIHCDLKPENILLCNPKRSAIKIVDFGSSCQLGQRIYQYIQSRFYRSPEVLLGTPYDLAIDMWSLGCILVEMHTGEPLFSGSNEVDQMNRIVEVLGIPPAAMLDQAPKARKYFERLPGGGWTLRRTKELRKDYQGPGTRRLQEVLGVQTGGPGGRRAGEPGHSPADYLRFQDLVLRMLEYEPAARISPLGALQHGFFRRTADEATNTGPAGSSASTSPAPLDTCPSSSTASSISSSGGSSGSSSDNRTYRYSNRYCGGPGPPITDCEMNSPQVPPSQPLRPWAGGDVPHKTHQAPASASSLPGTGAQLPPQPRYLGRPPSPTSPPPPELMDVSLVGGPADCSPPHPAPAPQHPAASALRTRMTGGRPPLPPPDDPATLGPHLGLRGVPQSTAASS
UniProt Q92630: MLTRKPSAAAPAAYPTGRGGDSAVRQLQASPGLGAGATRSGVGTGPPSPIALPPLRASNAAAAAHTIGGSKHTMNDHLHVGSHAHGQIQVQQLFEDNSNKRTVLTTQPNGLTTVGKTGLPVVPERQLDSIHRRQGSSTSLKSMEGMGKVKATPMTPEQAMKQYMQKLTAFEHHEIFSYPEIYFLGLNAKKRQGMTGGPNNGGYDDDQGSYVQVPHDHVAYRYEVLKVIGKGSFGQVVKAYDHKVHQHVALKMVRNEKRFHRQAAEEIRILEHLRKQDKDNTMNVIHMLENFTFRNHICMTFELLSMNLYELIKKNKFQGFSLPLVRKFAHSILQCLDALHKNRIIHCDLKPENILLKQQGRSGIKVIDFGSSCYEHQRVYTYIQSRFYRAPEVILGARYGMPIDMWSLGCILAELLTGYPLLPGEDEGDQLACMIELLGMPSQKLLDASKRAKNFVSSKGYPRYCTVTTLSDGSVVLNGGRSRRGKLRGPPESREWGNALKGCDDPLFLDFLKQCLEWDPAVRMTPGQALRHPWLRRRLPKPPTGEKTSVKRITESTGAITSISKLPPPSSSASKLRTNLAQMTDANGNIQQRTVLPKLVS

Measured: number of time points

CC(C)n1nc(C#Cc2ccccc2)c2c(N)ncnc21 (10 µM)
3: DYRK2 | EGFR_G719S
1: CSF1R | DYRK1B
0: all other assays above

CC(C)(C)S(=O)(=O)c1ccc2nccc(Nc3n[nH]c4ccc(F)cc34)c2c1 (10 µM)
0: all assays above

Cc1cc(=O)[nH]c(=S)[nH]1 [Methylthiouracil] (10 µM)
0: all assays above

CC(C)(O)c1cc2nc(-c3cnc(N)nc3)nc(N3CCOCC3)c2s1 (2.5 µM)
4: DDR1 | DYRK2
1: CHEK2 | CSF1R | CSNK1D | DYRK1B | EGFR_G719S
0: all other assays above

Cc1c(C(=O)Nc2ccc(Oc3ccnc4cc(OCC(C)(C)O)ccc34)c(F)c2)c(=O)n(-c2ccccc2)n1C [Ningetinib Tosylate] (10 µM)
3: CSNK1A1 | DYRK2
1: CHEK2 | CSF1R | CSNK1D | DDR1 | EGFR
2: CAMK2G | CDK6 | EGFR_G719S
0: all other assays above

CC(C)=CCC/C(C)=C/CC/C(C)=C/CSc1ccccc1C(=O)O [Salirasib] (10 µM)
3: CDK6
0: all other assays above

O=c1ccc2cc(O)c(O)cc2o1 [Esculetin] (10 µM)
0: all assays above

COC[C@H]1Cn2cc(-c3nc(Nc4ccnn4C)ncc3C)nc2C(=O)N1Cc1ccc(F)c(F)c1 (10 µM)
0: all assays above

O=S(=O)(N=Cc1c(O)ccc2ccccc12)c1cccs1 (10 µM)
0: all assays above

C=CC(=O)Nc1cccc(Oc2nc(Nc3ccc(N4CCN(C)CC4)cc3)ncc2Cl)c1 (2.5 µM)
0: all assays above

CC(C)(C)NS(=O)(=O)c1cncc(-c2cc(F)c3nc(N)nn3c2)c1 (10 µM)
0: all assays above

CS(=O)(=O)N1CCc2c(-c3cnc(N)nc3)nc(N3CCOCC3)nc21 (10 µM)
1: CSF1R | DDR1
0: all other assays above

CCC(=O)N1CC[C@H](Nc2ncnc3c2CN(c2cnc(OC)c(C(F)(F)F)c2)CC3)C1 [Leniolisib] (10 µM)
0: all assays above

CC1=C(C(=O)Nc2ccc3[nH]ncc3c2)C(c2ccc(F)c(C(=O)NCc3ccccn3)c2)NC(=O)N1 (stereo not given) (10 µM)
0: all assays above

Nc1n[nH]c(N)c1N=Nc1ccc(O)cc1 (10 µM)
0: all assays above

CCS(=O)(=O)c1ccc(Oc2cc(O[C@@H](C)CO)cc(C(=O)Nc3ccn(C)n3)c2)cn1 (10 µM)
0: all assays above

CNC(=O)c1nnc(NC(=O)C2CC2)cc1Nc1cccc(-c2ncn(C)n2)c1OC [Deucravacitinib] (10 µM)
0: all assays above

Cc1cc([N+](=O)[O-])c(NS(=O)(=O)c2cccc(C(=O)O)c2)cc1-c1cccnc1 [Alofanib] (10 µM)
0: all assays above

O=S(=O)(c1cccc2c(Cl)cccc12)N1CCCNCC1 (10 µM)
0: all assays above

O=C(Nc1nccs1)C(c1cc(F)ccc1O)N1Cc2ccccc2C1=O (stereo not given) (10 µM)
0: all assays above

Cc1ncc(F)c(Nc2n[nH]c3c2CN(C(=O)N2C[C@@H](C)N(CC4CCOCC4)C[C@@H]2C)C3(C)C)n1 (10 µM)
0: all assays above

COc1ncc2cc(C(=O)Nc3cc(C(=O)NCc4cccc(Cl)c4)ccc3Cl)c(=O)[nH]c2n1 (2.5 µM)
0: all assays above

O=C(N=c1sccn1Cc1ccccc1)c1c[nH]c2ncccc12 (10 µM)
0: all assays above

Cc1nc(NC(=O)N2CCC[C@H]2C(N)=O)sc1-c1csc(C(C)(C)C)n1 (10 µM)
0: all assays above

COc1ccc(S(=O)(=O)N(CCO)c2ccccc2CN(C)CC=Cc2ccc(Cl)cc2)cc1 (2.5 µM)
0: all assays above

Cn1cc(-c2cn3nccc3c(-c3cnn([C@]4(CC#N)C[C@@H](C#N)C4)c3)n2)cn1 (10 µM)
0: all assays above

C[C@@H]1O[C@@H](O[C@H]2[C@H](OC(=O)[C@]34CCC(C)(C)C[C@H]3C3=CC[C@@H]5[C@@]6(C)C[C@H](O)[C@H](O[C@@H]7O[C@H](CO)[C@@H](O)[C@H](O)[C@H]7O)C(CO)(CO)[C@@H]6CC[C@@]5(C)[C@]3(C)C[C@H]4O)OC[C@H](O)[C@@H]2O)[C@H](O)[C@H](O)[C@H]1O[C@@H]1OC[C@@H](O)[C@H](O[C@@H]2OC[C@](O)(CO)[C@H]2O)[C@H]1O [Platycodin D] (10 µM)
0: all assays above

Oc1ccc2ccccc2c1SSc1c(O)ccc2ccccc12 (10 µM)
0: all assays above

O=c1cc(N2CCOCC2)oc2c1ccc1ccccc12 (2 µM)
0: all assays above

C[C@@H](Nc1cc(F)cc(F)c1)c1cc(C(=O)N(C)C)cc2c(=O)cc(N3CCOCC3)oc12 (10 µM)
0: all assays above

Filtered by structure: the compounds so far with a thiophene ring, fused or not.
CC(C)(O)c1cc2nc(-c3cnc(N)nc3)nc(N3CCOCC3)c2s1 (2.5 µM)
4: DDR1 | DYRK2
1: CHEK2 | CSF1R | CSNK1D | DYRK1B | EGFR_G719S
0: all other assays above

O=S(=O)(N=Cc1c(O)ccc2ccccc12)c1cccs1 (10 µM)
0: all assays above

Continued:

Cc1cc(Nc2ncc(Cl)c(Nc3ccccc3S(=O)(=O)C(C)C)n2)c(OC(C)C)cc1C1CCN(CC(=O)NCCNc2cccc3c2C(=O)N(C2CCC(=O)NC2=O)C3=O)CC1 (stereo not given) (10 µM)
4: CDK6
0: all other assays above

Cc1ccc(Nc2c(C(N)=O)cnc3cc(-c4ccncc4)ccc23)cc1C [cFMS Receptor Inhibitor II] (10 µM)
0: all assays above

Cc1cc(F)c(Nc2ncnc3cc(OCc4ccccc4)ccc23)cc1O (10 µM)
0: all assays above

CN(c1ccc(C(F)(F)F)cc1)S(=O)(=O)c1ccc(C(=O)Nc2nc(-c3ccccn3)cs2)cc1 (2.5 µM)
0: all assays above

CCCCCC1CC1CC1CC1CCCCCCCC(=O)O (stereo not given) (10 µM)
0: all assays above

N#Cc1cn([C@@H]2O[C@H](CO)[C@@H](O)[C@H]2O)c2nc[nH]c(=O)c12 [Jaspamycin] (10 µM)
0: all assays above

C=CC(=O)Nc1cccc(Nc2nc(Nc3ccc(Oc4ccnc(C(=O)NC)c4)cc3)ncc2F)c1 (2.5 µM)
0: all assays above

CNC(=O)Nc1cc(Oc2cncc(C)c2)c(-c2ccc(OCC(C)(C)O)nc2)cn1 (2.5 µM)
0: all assays above

O=C1C(=Cc2ccc(O)c(O)c2)Oc2ccccc21 (2.5 µM)
0: all assays above

CN(C)CCCNc1ccn2ncc(-c3ccc4c(c3)OCO4)c2n1 (10 µM)
0: all assays above

CC(C)c1cnn2c(NCc3ccccc3)cc(NCCCCCCN)nc12 [BS-181 (hydrochloride)] (10 µM)
1: DDR1
0: all other assays above

COc1ccc(-c2cnc3c(-c4cccc5ncccc45)cnn3c2)cc1 (10 µM)
0: all assays above

CC(=O)Nc1nc(C)c(-c2ccc(Cl)c(S(=O)(=O)NCCO)c2)s1 (10 µM)
3: DYRK2
2: DDR1 | EGFR_G719S_T790M
0: all other assays above

OCCC#Cc1nc(-c2ccc(F)cc2)c(-c2ccncc2)n1CCCc1ccccc1 (2.5 µM)
0: all assays above

CCCC[C@H](CO)Nc1nc(NC)ncc1OC [Interferon receptor inducer-1] (10 µM)
0: all assays above

Cc1ccc(-c2csc(Cn3nc(CC4OCCCO4)c4ccccc4c3=O)n2)cc1 (10 µM)
0: all assays above

O=c1[nH]nc(Sc2ncc([N+](=O)[O-])s2)n1-c1ccc2c(c1)OCCO2 (2.5 µM)
0: all assays above

CC(=O)Nc1nc(C)c(-c2cc3c(c(S(C)(=O)=O)c2)C(=O)N([C@@H](C)C2CC2)C3)s1 (2.5 µM)
0: all assays above

C=CC(=O)N1CCN(c2nc(OC[C@@H]3CCCN3C)nc3c2CCN(c2cccc4cccc(C)c24)C3)C[C@@H]1CC#N (2.5 µM)
0: all assays above
